The text below walks through data of PMC6153280, “Roles of distal aspartate and arginine of B-class dye-decolorizing peroxidase in heterolytic hydrogen peroxide cleavage” (The Journal of Biological Chemistry, 2018).

The target of the test is WT B-class dye-decolorizing peroxidase from Klebsiella pneumoniae (KpDyP) (Klebsiella pneumoniae). Kind of test: crystal structure; vapor diffusion, 22 °C, PEG 3350, MgCl2, 0.1 M Tris-HCl pH 8.5; two subunits (chains A and B) in the structures; both purified.

These are yes or no findings as the source states them, for the method shown. Some binding calls cover weakened binding; strength is not graded here.

B1: WT B-class dye-decolorizing peroxidase from Klebsiella pneumoniae (KpDyP) (enzyme, UniProt A0A0W8ATM9 1-299, looked up)
chain: MSQVQSGILPEHCRAAIWIEANLKGDVNALREASKIFVDNVATFQAKFPDAKLGAVVAFGNNVWRQLSGGEGADELKDFPVYGKGLAPSTQYDLLIHILSARHEVNFSVAQAALAAFGDAIDVKEEIHGFRWVEERDLSGFVDGTENPAGEETRREVAVIKDGVDAGGSYVFVQRWEHNLKQLNRMSVPDQEMMIGRTKDANEEIDGDERPVTSHLSRVDLKEDGKGLKIVRQSLPYGTASGTHGLYFCAYCARLYNIEQQLLSMFGDTDGKRDAMLRFTKPVTGGYYFAPSLERIQAL
notes: B-class dye-decolorizing peroxidase (KpDyP), Klebsiella pneumoniae; codon-optimized DNA cloned into pGEX-6P1 with primers that run from the ATG start to the stop codon; about 35 kDa per subunit; One heme b per subunit; also called WT KpDyP; source: E. coli BL21 (DE3) pLysS, purified (GSTrap, on-column HRV 3C cleavage, SEC)
For B1, the binding entry is given as “binds”.
